{"source": "paper PMC8611056", "target": "T1, IsdB NEAT1 (aa residues 144-270) (S. aureus SH1000) (UniProt Q2FZF0)", "T1 sequence": "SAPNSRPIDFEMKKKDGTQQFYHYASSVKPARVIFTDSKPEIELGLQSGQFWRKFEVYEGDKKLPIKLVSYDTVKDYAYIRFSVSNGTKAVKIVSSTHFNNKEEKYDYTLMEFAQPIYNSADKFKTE", "assay": "ELISA; IsdB NEAT1-NEAT2, NEAT1 or NEAT2 coated at 1 μg/well, A1 domain from 0 to 5 μg/well, detected with anti-human vWF IgG; both purified", "note": "These are yes or no findings as the source states them, for the method shown. Binding calls can cover weak binding; strength is not graded here.", "data": [{"substance": "recombinant A1 domain of human von Willebrand factor (aa residues 460-730), 6xHis-tagged (domain or fragment)", "values": [{"measurement": "binding", "value": "binds"}]}]}
